For some of these results: Plain letter strings leave the end groups untold.
Legend:
[1] = general procedure: Fmoc solid-phase peptide synthesis; rink-amide MBHA; conditions: whole synthesis, RP-HPLC, scale 0.3 mmol
[2] = general procedure: Fmoc solid-phase peptide synthesis; rink-amide 4-methylbenzhydrylamine resin (100-200 mesh, 0.78 mmol/g loading); conditions: conjugation step, RP-HPLC

| Substance | final HPLC purity [1] | final HPLC purity [2] |
| --- | --- | --- |
| N2H3CO(C2H4CO)2OCONH-VSPPLTLGQLLS | 97% |  |
| VSPPLTLGQLLS | >97% |  |
| [Ru(CpCON2HCCH3C2H4CONH-VSPPLTLGQLLS)(PPh)(bipy)][CF3SO3] |  | 97% |
| [Ru(CpCCH3N2HCOC2H4CONH-VSPPLTLGQLLS)(PPh)(bipy)][CF3SO3] |  | >97% |
| CH3COC2H4CONH-VSPPLTLGQLLS | >97% |  |
| N2H3COC2H4CONH-VSPPLTLGQLLS | ≥97% |  |
| [Ru(CpCCH3N2HCOC2H4CONH-VSPPLTLGQLLS)(PPh3)(phen)][CF3SO3] |  | >97% |

— patent US20250195463A1 (FACULDADE DE CIÊNCIAS DA UNIVERSIDADE DE LISBOA, priority 2022, published 2025)
